Data: PMC5300874
Numbering of substitutions follows the chain as printed. Results are given in words; binding and its absence hold for the method and conditions named. Binding seen in cells or lysates may run through a third protein. Some entries that bind do so weakly or less than the wild type. Sequences can lack the tags named with a protein.

Amino acid sequences for entries named in this document (tags omitted).
UniProt Q8TRB6: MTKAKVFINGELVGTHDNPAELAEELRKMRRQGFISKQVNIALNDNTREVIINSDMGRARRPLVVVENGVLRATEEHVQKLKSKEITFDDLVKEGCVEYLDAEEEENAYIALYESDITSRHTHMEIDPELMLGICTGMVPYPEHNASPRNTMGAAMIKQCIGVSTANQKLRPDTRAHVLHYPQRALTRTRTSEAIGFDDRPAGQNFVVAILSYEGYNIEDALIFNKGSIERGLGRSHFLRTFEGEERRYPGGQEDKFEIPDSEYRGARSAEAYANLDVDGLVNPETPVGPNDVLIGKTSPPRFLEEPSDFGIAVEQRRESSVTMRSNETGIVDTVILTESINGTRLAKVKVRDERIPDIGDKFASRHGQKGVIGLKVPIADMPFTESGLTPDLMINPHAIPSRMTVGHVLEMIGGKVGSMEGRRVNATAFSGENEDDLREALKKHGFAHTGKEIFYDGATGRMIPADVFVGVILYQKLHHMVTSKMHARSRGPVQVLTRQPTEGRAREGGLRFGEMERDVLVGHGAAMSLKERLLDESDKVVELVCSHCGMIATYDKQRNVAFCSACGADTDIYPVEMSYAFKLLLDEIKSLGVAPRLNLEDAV

Columns and labels:
[1] = biological target: T1, (His)Rpo3, N-terminally histidine-tagged wild-type Rpo3 expressed in Methanosarcina acetivorans (Methanosarcina acetivorans) (UniProt P0CG28); assay: pull-down; gene replacement M. acetivorans strains (native rpo3 replaced); (His)Rpo3 variant held on Ni2+-agarose from lysate, anaerobic; eluates normalised to Rpo3; western blot for Rpo11, Rpo2′, Rpo1″
T1 sequence: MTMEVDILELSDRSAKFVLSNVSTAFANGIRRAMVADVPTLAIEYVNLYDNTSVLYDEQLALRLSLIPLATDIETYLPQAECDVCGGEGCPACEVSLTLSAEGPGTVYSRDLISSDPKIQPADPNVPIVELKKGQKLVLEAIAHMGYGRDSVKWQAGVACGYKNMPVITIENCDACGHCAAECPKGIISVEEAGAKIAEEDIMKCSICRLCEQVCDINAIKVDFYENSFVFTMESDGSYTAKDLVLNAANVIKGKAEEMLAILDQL

[2] = biological target: T2, (His)Rpo3mFeS2 (Methanosarcina acetivorans) (UniProt P0CG28); assay: as above
T2 sequence: T1 sequence with C173S, C176S, C179S

[3] = biological target: T1, (His)Rpo3, N-terminally histidine-tagged wild-type Rpo3 expressed in Methanosarcina acetivorans (Methanosarcina acetivorans); assay: pull-down; merodiploid M. acetivorans strains (native Rpo3 also present), tetracycline-induced; (His)Rpo3 variant held on Ni2+-agarose from lysate, anaerobic; eluates normalised to 15 ng (His)Rpo3; western blot for Rpo11, Rpo2′, Rpo1″

binding [1]: binds
binding [2]: binds
binding [3]: binds
Substance: Rpo2′ (RpoB′), catalytic subunit of Methanosarcina acetivorans RNA polymerase (from UniProt Q8TRB6 1-604)
